# From the supplement of paper PMC12889115
# The other results are listed elsewhere or left out. Values are raw readings; no control value is given beside them.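 Primary screen: polymyxin B was added at a level permeabilizing Salmonella outer membranes while sparing inner membranes. DMSO wells, both with and without polymyxin B, established maximum growth. Plate-to-plate variation meant each plate was ranked on its own, and the lowest-OD600 compounds were selected as hits.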
# System: Salmonella enterica serovar Typhimurium SL1344
# Assay: bacterial growth OD600 after 18 h with compound and polymyxin B; higher = more bacterial growth (less inhibition)
# Conditions: 50 µM, Mueller-Hinton broth
SMILES,bacterial growth OD600 (polymyxin B 0.75 µg/mL),bacterial growth OD600 (polymyxin B 1 µg/mL)
CC(C)(O)C#Cc1ccc(C(=O)N2Cc3ccccc3OC(c3ccccc3)C2)cc1 (configuration not stated),0.002,
COc1cccc(NC(=O)N(C)CC2CCCN(CCc3ccccc3C)C2)c1 (configuration not stated),,1.01
CO[C@H]1[C@H](NC(=O)c2ccccn2)c2ccccc2C12CCN(C(=O)C1=C(C)OCCO1)CC2,0.782,
COc1ccccc1Oc1ncccc1CNS(=O)(=O)c1cccs1,,0.851
CC(=O)c1ccc(C(=O)N2CCCC(Nc3cccc(F)c3)C2)cc1 (configuration not stated),,0.882
COC(=O)[C@@H](NC1CCN(c2ccc(NC(=O)C3CCCC3)cc2)CC1)c1ccccc1,0.909,
OCC1(Cc2ccccc2)CCCN(CCCC2CCCC2)C1 (configuration not stated),0.901,
CC#CC(=O)N1CCCC(C(=O)Nc2ccc(-c3cccc(F)c3)cc2)C1 (configuration not stated),,0.701
Cc1ccc(C)c(CN2CCC(CO)(Cc3ccccc3)CC2)c1,,0.881
Cc1ccn(CC(=O)NC2CC(=O)N(CC3CCCCC3)C2)n1 (configuration not stated),,0.865
CCOC(=O)N1CCN(C(=O)C2CC23CCN(C(=O)C2=CCCC2)CC3)CC1 (configuration not stated),0.981,
Cc1nc(C)c(CN(C)C2CCCN(CCc3ccccc3)C2)nc1C (configuration not stated),,0.725
CN(c1ncccc1CNc1ncccn1)C1CCCCC1,0.569,
CCOC(=O)C1(CCOc2ccccc2)CCN(S(=O)(=O)c2c(C)noc2C)CC1,,0.834
CC(NC(=O)c1cc(COc2ccccc2)on1)c1nccs1 (configuration not stated),,0.775
Nc1ncc(CN2CCCC(CNC(=O)CCc3ccccc3)C2)cn1 (configuration not stated),0.848,

SMILES,bacterial growth OD600 (polymyxin B 0.75 µg/mL),bacterial growth OD600 (polymyxin B 1 µg/mL)
COc1ccc(CN2CCC(C(Cc3ccccc3)N(C(=O)c3ccco3)C3CC3)CC2)cc1C (configuration not stated),0.004,
O=C(CC(c1cccc(O)c1)c1ccccc1Cl)N1CCCC1 (configuration not stated),,0.523
COCC(C)NC(=O)c1cc(COc2cccc(C(F)(F)F)c2)[nH]n1 (configuration not stated),,0.87
COc1ccc(C(=O)N2CCCC2)c(OC2CCN(Cc3ccc(SC)cc3)CC2)c1,,1.15
COc1ccc(OC2CCN(C3CCCC3)CC2)c(C(=O)NCCSC)c1,,0.842
CCc1[nH]c2c(CNC(=O)Cc3cccnc3)cc(F)cc2c1C,0.825,
C=CCS(=O)(=O)N1CCCC(CCc2cccc(OC)c2)C1 (configuration not stated),0.007,
NC(=O)C1CCN(C(=O)CC(c2ccccc2)c2ccccc2Cl)CC1 (configuration not stated),,0.775
O=C(CCCc1ccccc1)Nc1cccc(N2CCC(N3CCN(c4ccccc4O)CC3)CC2)c1,0.515,
CC(C)c1noc(-c2ccc(NCc3noc(C(C)C)n3)nc2)n1,0.623,
O=C(c1cc(COc2cccc3cccnc23)on1)N1CCCCCCC1,,0.835
OC(Cc1ccccc1)c1ccc2c(c1)CN(Cc1ccco1)CCO2 (configuration not stated),0.786,
CN1CCCC(CN(CCc2ccccc2)C(=O)c2ccc(F)c(F)c2)C1 (configuration not stated),,0.848
CCOC(=O)C1(Cc2ccc(F)cc2)CCCN(C(=O)c2cn(C)c3ccccc3c2=O)C1 (configuration not stated),0.799,
COc1cc(CN2CCc3[nH]ncc3C2)ccc1OCC(O)CN(C)C1CCCCC1 (configuration not stated),0.793,
Cc1cc2c(C)nc(N3CCC(NC(CCn4ccnc4C)c4ccccc4)CC3)nc2cc1F (configuration not stated),0.754,

# Reprinted at random: 2 records from the list.
SMILES,bacterial growth OD600 (polymyxin B 0.75 µg/mL),bacterial growth OD600 (polymyxin B 1 µg/mL)
OC(Cc1ccccc1)c1ccc2c(c1)CN(Cc1ccco1)CCO2 (configuration not stated),0.786,
COc1ccccc1Oc1ncccc1CNS(=O)(=O)c1cccs1,,0.851
